Experimental data as given in ChEMBL document CHEMBL4316593 (Eur J Med Chem, 2019).
This continues a long series; more values of the same kind are listed elsewhere.

Experiments:
Format in all cases: cell-based
Conditions in all cases: U-87MG ATCC
[1] = Inhibition of RTK/PI3K/AKT/mTOR signaling in human U87 cells assessed as up regulation of thymosin beta 4, X-linked gene expression at cytotoxic IC50 measured after 48 hrs relative to control
[2] = Inhibition of RTK/PI3K/AKT/mTOR signaling in human U87 cells assessed as down regulation of TTI1 gene expression at cytotoxic IC50 measured after 48 hrs relative to control
[3] = Inhibition of RTK/PI3K/AKT/mTOR signaling in human U87 cells assessed as down regulation of RPRD1B gene expression at cytotoxic IC50 measured after 48 hrs relative to control
[4] = Inhibition of RTK/PI3K/AKT/mTOR signaling in human U87 cells assessed as up regulation of protein phosphatase 1 regulatory subunit 10 gene expression at cytotoxic IC50 measured after 48 hrs relative to control
[5] = Inhibition of RTK/PI3K/AKT/mTOR signaling in human U87 cells assessed as down regulation of NMT1 gene expression at cytotoxic IC50 measured after 48 hrs relative to control
[6] = Inhibition of RTK/PI3K/AKT/mTOR signaling in human U87 cells assessed as down regulation of SRSF3 gene expression at cytotoxic IC50 measured after 48 hrs relative to control
[7] = Inhibition of RTK/PI3K/AKT/mTOR signaling in human U87 cells assessed as down regulation of UBR1 gene expression at cytotoxic IC50 measured after 48 hrs relative to control
[8] = Inhibition of RTK/PI3K/AKT/mTOR signaling in human U87 cells assessed as down regulation of VPS50 gene expression at cytotoxic IC50 measured after 48 hrs relative to control
[9] = Inhibition of RTK/PI3K/AKT/mTOR signaling in human U87 cells assessed as down regulation of SMCO4 gene expression at cytotoxic IC50 measured after 48 hrs relative to control
[10] = Inhibition of RTK/PI3K/AKT/mTOR signaling in human U87 cells assessed as down regulation of TMEM14B gene expression at cytotoxic IC50 measured after 48 hrs relative to control
[11] = Inhibition of RTK/PI3K/AKT/mTOR signaling in human U87 cells assessed as up regulation of BRSK1 gene expression at cytotoxic IC50 measured after 48 hrs relative to control
[12] = Inhibition of RTK/PI3K/AKT/mTOR signaling in human U87 cells assessed as down regulation of MYH9 gene expression at cytotoxic IC50 measured after 48 hrs relative to control
[13] = Inhibition of RTK/PI3K/AKT/mTOR signaling in human U87 cells assessed as up regulation of RNA polymerase I subunit B gene expression at cytotoxic IC50 measured after 48 hrs relative to control
[14] = Inhibition of RTK/PI3K/AKT/mTOR signaling in human U87 cells assessed as down regulation of ARFGAP2 gene expression at cytotoxic IC50 measured after 48 hrs relative to control
[15] = Inhibition of RTK/PI3K/AKT/mTOR signaling in human U87 cells assessed as up regulation of GNG4 gene expression at cytotoxic IC50 measured after 48 hrs relative to control
[16] = Inhibition of RTK/PI3K/AKT/mTOR signaling in human U87 cells assessed as down regulation of UBR3 gene expression at cytotoxic IC50 measured after 48 hrs relative to control
[17] = Inhibition of RTK/PI3K/AKT/mTOR signaling in human U87 cells assessed as down regulation of USP38 gene expression at cytotoxic IC50 measured after 48 hrs relative to control
[18] = Inhibition of RTK/PI3K/AKT/mTOR signaling in human U87 cells assessed as down regulation of FDFT1 gene expression at cytotoxic IC50 measured after 48 hrs relative to control
[19] = Inhibition of RTK/PI3K/AKT/mTOR signaling in human U87 cells assessed as down regulation of ACOT7 gene expression at cytotoxic IC50 measured after 48 hrs relative to control
[20] = Inhibition of RTK/PI3K/AKT/mTOR signaling in human U87 cells assessed as up regulation of complement C1r subcomponent like gene expression at cytotoxic IC50 measured after 48 hrs relative to control
[21] = Inhibition of RTK/PI3K/AKT/mTOR signaling in human U87 cells assessed as down regulation of TNKS2 gene expression at cytotoxic IC50 measured after 48 hrs relative to control
[22] = Inhibition of RTK/PI3K/AKT/mTOR signaling in human U87 cells assessed as down regulation of CLK1 gene expression at cytotoxic IC50 measured after 48 hrs relative to control
[23] = Inhibition of RTK/PI3K/AKT/mTOR signaling in human U87 cells assessed as up regulation of solute carrier family 29 member 4 gene expression at cytotoxic IC50 measured after 48 hrs relative to control
[24] = Inhibition of RTK/PI3K/AKT/mTOR signaling in human U87 cells assessed as up regulation of calcineurin like phosphoesterase domain containing 1 gene expression at cytotoxic IC50 measured after 48 hrs relative to control
[25] = Inhibition of RTK/PI3K/AKT/mTOR signaling in human U87 cells assessed as down regulation of SNX29 gene expression at cytotoxic IC50 measured after 48 hrs relative to control
[26] = Inhibition of RTK/PI3K/AKT/mTOR signaling in human U87 cells assessed as down regulation of SGK1 gene expression at cytotoxic IC50 measured after 48 hrs relative to control
[27] = Inhibition of RTK/PI3K/AKT/mTOR signaling in human U87 cells assessed as up regulation of insulin receptor gene expression at cytotoxic IC50 measured after 48 hrs relative to control
[28] = Inhibition of RTK/PI3K/AKT/mTOR signaling in human U87 cells assessed as down regulation of KCTD13 gene expression at cytotoxic IC50 measured after 48 hrs relative to control
[29] = Inhibition of RTK/PI3K/AKT/mTOR signaling in human U87 cells assessed as up regulation of prostaglandin E synthase 2 gene expression at cytotoxic IC50 measured after 48 hrs relative to control
[30] = Inhibition of RTK/PI3K/AKT/mTOR signaling in human U87 cells assessed as down regulation of PPP1R13B gene expression at cytotoxic IC50 measured after 48 hrs relative to control
[31] = Inhibition of RTK/PI3K/AKT/mTOR signaling in human U87 cells assessed as up regulation of pleckstrin homology like domain family A member 3 gene expression at cytotoxic IC50 measured after 48 hrs relative to control
[32] = Inhibition of RTK/PI3K/AKT/mTOR signaling in human U87 cells assessed as down regulation of SH3GL1 gene expression at cytotoxic IC50 measured after 48 hrs relative to control

CC(=O)C(=NNc1ccccc1C#N)C(C)=O
log2FC [1]: 1.25 | log2FC [2]: -1.01 | log2FC [3]: -0.712 | log2FC [4]: 1.05 | log2FC [5]: -0.373 | log2FC [6]: -0.351 | log2FC [7]: -0.785 | log2FC [8]: -0.895 | log2FC [9]: -1.39 | log2FC [10]: -0.686 | log2FC [11]: 1.81 | log2FC [12]: -0.872 | log2FC [13]: 0.846 | log2FC [14]: -0.75 | log2FC [15]: 1.91 | log2FC [16]: -0.778 | log2FC [17]: -1.27 | log2FC [18]: -0.625 | log2FC [19]: -0.942 | log2FC [20]: 1.2 | log2FC [21]: -0.672 | log2FC [22]: -1.08 | log2FC [23]: 1.36 | log2FC [24]: 1 | log2FC [25]: -1.74 | log2FC [26]: -2.13 | log2FC [27]: 0.735 | log2FC [28]: -1.02 | log2FC [29]: 0.699 | log2FC [30]: -0.97 | log2FC [31]: 0.669 | log2FC [32]: -0.539
